Test results taken from paper PMC7377239, “Cardiovascular Effects of Polychlorinated Biphenyls and Their Major Metabolites” (Environmental Health Perspectives, 2020).

Test system: iPSC-CMs, iPSC-ECs and HUVECs phenotypes
Experiment: ToxPi 2.0 integration of POD values and physicochemical descriptors
Parameters: species or system human
Conditions: for ToxPi_Score_Bioactivity: Biological Activity ToxPi, POD values of iPSC-CM, iPSC-EC and HUVEC phenotypes integrated; for ToxPi_Score_ChemBiol: Chemical-Biological Integration ToxPi, in vitro data plus physicochemical descriptors
How it was run: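 Phenotypic readouts in iPSC-cardiomyocytes, iPSC-endothelial cells and HUVECs were normalised to 0.5% DMSO vehicle and fitted to a four-parameter logistic model. POD set at one SD cutoff of vehicle means, with 100 μM assigned when no response. PODs and physicochemical descriptors combined in ToxPi 2.0 scores.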

[1] = HUVECs tube formation, 18 hr, scaled score from POD
[2] = HUVECs, 24 hr, scaled score from POD
[3] = iPSC-EC, 18 h, scaled POD score
[4] = iPSC-EC, 24 h, scaled POD score
[5] = iPSC-EC tube formation, 18 hr, scaled from POD
[6] = iPSC-EC, 24 hr, scaled from POD

## Clc1ccc(Cl)c(-c2c(Cl)ccc(Cl)c2Cl)c1Cl [(+)-PCB 136, 2,2′,3,3′,6,6′-hexachlorobiphenyl]
90min
  cm.amp.avg.90min ToxPi: 0.64
  cm.amp.cv.90min ToxPi: 0.24
  cm.bpm.90min ToxPi: 0.80
  cm.cam.90min ToxPi: 0.48
  cm.decay.rise.90min ToxPi: 0.19
  cm.mii.90min ToxPi: 0.58
  cm.mito.90min ToxPi: 0.47
  cm.spacing.cv.90min ToxPi: 0.08
  cm.tc.90min ToxPi: 0.41
24hrs
  cm.amp.avg.24hrs ToxPi: 0.56
  cm.amp.cv.24hrs ToxPi: 0.54
  cm.bpm.24hrs ToxPi: 0.72
  cm.cam.24hrs ToxPi: 0.58
  cm.decay.rise.24hrs ToxPi: 0.92
  cm.mii.24hrs ToxPi: 0.18
  cm.mito.24hrs ToxPi: 0.85
  cm.spacing.cv.24hrs ToxPi: 0.75
  cm.tc.24hrs ToxPi: 1.00
  ToxPi_Score_Bioactivity: 0.6038
  ToxPi_Score_ChemBiol: 0.7665
[1]
  huvec.mtl.18hr ToxPi: 0.45
  huvec.tlps.18hr ToxPi: 0.00
  huvec.tta.18hr ToxPi: 0.00
  huvec.ttl.18hr ToxPi: 0.00
[2]
  huvec.cyto.24hr ToxPi: 0.71
  huvec.mito.24hr ToxPi: 0.67
  huvec.mitoint.24hr ToxPi: 1.00
  huvec.nma.24hr ToxPi: 0.51
HUVECs, scaled score from POD
  huvec.tc.24hrs ToxPi: 0.71
[3]
  endo.mtl.18hr ToxPi: 0.0475
  endo.tlps.18hr ToxPi: 0.45
  endo.tta.18hr ToxPi: 0.86
  endo.ttl.18hr ToxPi: 0.85
[4]
  endo.cyto.24hr ToxPi: 0.17
  endo.mito.24hr ToxPi: 0.17
  endo.mitoint.24hr ToxPi: 0.29
  endo.nma.24hr ToxPi: 0.00
  endo.tc.24hrs ToxPi: 0.17

## Clc1ccc(Cl)c(-c2c(Cl)ccc(Cl)c2Cl)c1Cl [(-)-PCB 136, 2,2′,3,3′,6,6′-hexachlorobiphenyl]
90min
  cm.amp.avg.90min ToxPi: 0.76
  cm.amp.cv.90min ToxPi: 0.23
  cm.bpm.90min ToxPi: 0.26
  cm.cam.90min ToxPi: 0.91
  cm.decay.rise.90min ToxPi: 0.56
  cm.mii.90min ToxPi: 0.31
  cm.mito.90min ToxPi: 0.91
  cm.spacing.cv.90min ToxPi: 0.08
  cm.tc.90min ToxPi: 0.92
24hrs
  cm.amp.avg.24hrs ToxPi: 0.72
  cm.amp.cv.24hrs ToxPi: 1.00
  cm.bpm.24hrs ToxPi: 0.38
  cm.cam.24hrs ToxPi: 0.28
  cm.decay.rise.24hrs ToxPi: 0.90
  cm.mii.24hrs ToxPi: 0.34
  cm.mito.24hrs ToxPi: 0.45
  cm.spacing.cv.24hrs ToxPi: 0.20
  cm.tc.24hrs ToxPi: 0.47
  ToxPi_Score_Bioactivity: 0.5804
  ToxPi_Score_ChemBiol: 0.7521
[1]
  huvec.mtl.18hr ToxPi: 0.34
  huvec.tlps.18hr ToxPi: 0.30
  huvec.tta.18hr ToxPi: 0.0137
  huvec.ttl.18hr ToxPi: 0.00
[2]
  huvec.cyto.24hr ToxPi: 0.61
  huvec.mito.24hr ToxPi: 0.55
  huvec.mitoint.24hr ToxPi: 0.95
  huvec.nma.24hr ToxPi: 0.50
HUVECs, scaled score from POD
  huvec.tc.24hrs ToxPi: 0.61
[3]
  endo.mtl.18hr ToxPi: 0.07
  endo.tlps.18hr ToxPi: 0.09
  endo.tta.18hr ToxPi: 0.61
  endo.ttl.18hr ToxPi: 0.63
[4]
  endo.cyto.24hr ToxPi: 0.37
  endo.mito.24hr ToxPi: 0.37
  endo.mitoint.24hr ToxPi: 0.47
  endo.nma.24hr ToxPi: 0.00
  endo.tc.24hrs ToxPi: 0.38

## Clc1ccc(-c2ccccc2)cc1 [PCB3]
HUVECs, 18 hr, scaled from POD
  huvec.mtl.18hr ToxPi: 0.31
  huvec.tlps.18hr ToxPi: 0.00
  huvec.tta.18hr ToxPi: 0.99
  huvec.ttl.18hr ToxPi: 0.75
HUVECs, 24 hr, scaled from POD
  huvec.cyto.24hr ToxPi: 0.00
  huvec.mito.24hr ToxPi: 0.00
  huvec.mitoint.24hr ToxPi: 0.00
  huvec.nma.24hr ToxPi: 0.00
HUVECs, scaled from POD
  huvec.tc.24hrs ToxPi: 0.00
iPSC-CM
  cm.amp.avg.24hrs ToxPi: 0.05
  cm.amp.avg.90min ToxPi: 0.31
  cm.amp.cv.24hrs ToxPi: 0.21
  cm.amp.cv.90min ToxPi: 0.68
  cm.bpm.24hrs ToxPi: 0.19
  cm.bpm.90min ToxPi: 0.38
  cm.cam.24hrs ToxPi: 0.35
  cm.cam.90min ToxPi: 0.57
  cm.decay.rise.24hrs ToxPi: 0.32
  cm.decay.rise.90min ToxPi: 0.00
  cm.mii.24hrs ToxPi: 0.59
  cm.mii.90min ToxPi: 1.00
  cm.mito.24hrs ToxPi: 0.58
  cm.mito.90min ToxPi: 0.63
  cm.spacing.cv.24hrs ToxPi: 0.17
  cm.spacing.cv.90min ToxPi: 1.00
  cm.tc.24hrs ToxPi: 0.61
  cm.tc.90min ToxPi: 0.66
[5]
  endo.mtl.18hr ToxPi: 0.00
  endo.tlps.18hr ToxPi: 0.00
  endo.tta.18hr ToxPi: 0.00
  endo.ttl.18hr ToxPi: 0.00
[6]
  endo.cyto.24hr ToxPi: 0.00
  endo.mito.24hr ToxPi: 0.00
  endo.mitoint.24hr ToxPi: 0.00
  endo.nma.24hr ToxPi: 0.00
  endo.tc.24hrs ToxPi: 0.00

## Clc1cccc(-c2cccc(Cl)c2)c1 [PCB11]
HUVECs, 18 hr, scaled from POD
  huvec.mtl.18hr ToxPi: 0.00
  huvec.tlps.18hr ToxPi: 0.17
  huvec.tta.18hr ToxPi: 0.00
  huvec.ttl.18hr ToxPi: 0.00
HUVECs, 24 hr, scaled from POD
  huvec.cyto.24hr ToxPi: 0.23
  huvec.mito.24hr ToxPi: 0.28
  huvec.mitoint.24hr ToxPi: 0.51
  huvec.nma.24hr ToxPi: 0.30
HUVECs, scaled from POD
  huvec.tc.24hrs ToxPi: 0.23
iPSC-CM
  cm.amp.avg.24hrs ToxPi: 0.07
  cm.amp.avg.90min ToxPi: 0.64
  cm.amp.cv.24hrs ToxPi: 0.59
  cm.amp.cv.90min ToxPi: 0.37
  cm.bpm.24hrs ToxPi: 0.15
  cm.bpm.90min ToxPi: 0.15
  cm.cam.24hrs ToxPi: 0.14
  cm.cam.90min ToxPi: 0.69
  cm.decay.rise.24hrs ToxPi: 0.25
  cm.decay.rise.90min ToxPi: 0.68
  cm.mii.24hrs ToxPi: 0.62
  cm.mii.90min ToxPi: 0.78
  cm.mito.24hrs ToxPi: 0.24
  cm.mito.90min ToxPi: 0.79
  cm.spacing.cv.24hrs ToxPi: 0.37
  cm.spacing.cv.90min ToxPi: 0.07
  cm.tc.24hrs ToxPi: 0.24
  cm.tc.90min ToxPi: 0.73
[5]
  endo.mtl.18hr ToxPi: 0.00
  endo.tlps.18hr ToxPi: 0.00
  endo.tta.18hr ToxPi: 0.00
  endo.ttl.18hr ToxPi: 0.00
[6]
  endo.cyto.24hr ToxPi: 0.00
  endo.mito.24hr ToxPi: 0.00
  endo.mitoint.24hr ToxPi: 0.00
  endo.nma.24hr ToxPi: 0.00
  endo.tc.24hrs ToxPi: 0.00

## Clc1ccc(Cl)c(-c2cc(Cl)ccc2Cl)c1 [PCB52]
90min
  cm.amp.avg.90min ToxPi: 0.56
  cm.amp.cv.90min ToxPi: 0.17
  cm.bpm.90min ToxPi: 0.32
  cm.cam.90min ToxPi: 0.42
  cm.decay.rise.90min ToxPi: 0.18
  cm.mii.90min ToxPi: 0.84
  cm.mito.90min ToxPi: 0.38
  cm.spacing.cv.90min ToxPi: 0.16
  cm.tc.90min ToxPi: 0.39
24hrs
  cm.amp.avg.24hrs ToxPi: 0.35
  cm.amp.cv.24hrs ToxPi: 0.50
  cm.bpm.24hrs ToxPi: 0.35
  cm.cam.24hrs ToxPi: 0.35
  cm.decay.rise.24hrs ToxPi: 0.29
  cm.mii.24hrs ToxPi: 0.28
  cm.mito.24hrs ToxPi: 0.56
  cm.spacing.cv.24hrs ToxPi: 0.23
  cm.tc.24hrs ToxPi: 0.58
HUVECs, 18 hr, scaled from POD
  huvec.mtl.18hr ToxPi: 0.00
  huvec.tlps.18hr ToxPi: 0.00
  huvec.tta.18hr ToxPi: 0.00
  huvec.ttl.18hr ToxPi: 0.00
HUVECs, 24 hr, scaled from POD
  huvec.cyto.24hr ToxPi: 0.52
  huvec.mito.24hr ToxPi: 0.61
  huvec.mitoint.24hr ToxPi: 0.56
  huvec.nma.24hr ToxPi: 0.38
HUVECs, scaled from POD
  huvec.tc.24hrs ToxPi: 0.52
[5]
  endo.mtl.18hr ToxPi: 0.0237
  endo.tlps.18hr ToxPi: 0.00
  endo.tta.18hr ToxPi: 0.00
  endo.ttl.18hr ToxPi: 0.00
[6]
  endo.cyto.24hr ToxPi: 0.00
  endo.mito.24hr ToxPi: 0.00
  endo.mitoint.24hr ToxPi: 0.00
  endo.nma.24hr ToxPi: 0.00
  endo.tc.24hrs ToxPi: 0.00
